# Measured values reported in paper PMC7737610.
# The chains behind the UniProt entries cited, without tags or fusion partners. Where a name states a change or a piece, a line headed by the entry shows the natural chain unless it says otherwise.
# UniProt Q86VP1: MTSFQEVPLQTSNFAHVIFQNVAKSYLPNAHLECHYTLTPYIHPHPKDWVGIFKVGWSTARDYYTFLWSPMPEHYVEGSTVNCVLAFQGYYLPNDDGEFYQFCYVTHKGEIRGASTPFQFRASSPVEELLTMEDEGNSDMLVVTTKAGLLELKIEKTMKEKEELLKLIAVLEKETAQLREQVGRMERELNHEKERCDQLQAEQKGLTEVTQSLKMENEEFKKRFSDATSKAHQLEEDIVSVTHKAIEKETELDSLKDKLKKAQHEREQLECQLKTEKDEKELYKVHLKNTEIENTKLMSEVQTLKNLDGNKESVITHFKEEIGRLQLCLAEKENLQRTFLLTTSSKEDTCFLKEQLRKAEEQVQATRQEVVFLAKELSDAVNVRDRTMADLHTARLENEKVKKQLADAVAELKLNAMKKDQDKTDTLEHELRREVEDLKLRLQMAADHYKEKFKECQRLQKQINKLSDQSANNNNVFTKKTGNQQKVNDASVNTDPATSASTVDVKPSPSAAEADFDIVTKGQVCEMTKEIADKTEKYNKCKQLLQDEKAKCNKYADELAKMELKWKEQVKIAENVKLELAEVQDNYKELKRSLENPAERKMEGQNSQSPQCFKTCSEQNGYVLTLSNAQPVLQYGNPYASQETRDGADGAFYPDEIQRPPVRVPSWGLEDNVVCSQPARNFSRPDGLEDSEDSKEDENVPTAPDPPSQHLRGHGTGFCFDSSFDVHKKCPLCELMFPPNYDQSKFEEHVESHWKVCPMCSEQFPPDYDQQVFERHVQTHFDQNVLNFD
# Assays:
# [1] = target: TagBFP-V5-TAX1BP1^(1–506ΔO domain) (UniProt Q86VP1); experiment: co-IP; HEK293T cells transfected with TagBFP-V5-TAX1BP1 variants (with myc-TAX1BP1 WT, myc-NBR1 WT or HA-FIP200 where indicated); extracts precipitated with anti-TagBFP magnetic beads; eluates immunoblotted
# [2] = target: TagBFP-V5-TAX1BP1 ΔO domain (full length context) (UniProt Q86VP1); experiment: as above
substance,measurement,setting,value
myc-TAX1BP1^WT (from UniProt Q86VP1-1 1-789),binding,[1],no binding
same,binding,[2],binds

# No constants are given. Whether binding was seen depends on the method and setting. Binding seen in cells or lysates may run through a third protein. For some assays here: A result given as binding can be weak or reduced; the word gives no strength.
